Assay results taken from PubChem BioAssay AID190 (DTP/NCI, 2004).
The list shows only some results of the screen, not a fair sample: it is rich in T/C values a quarter to a half above the control, in often repeated tests (any T/C) and in doses without a T/C. Further doses and runs are listed elsewhere. T/C gives the treated animals as a percentage of the vehicle group. Some entries give survivors of the animals treated and no T/C: the source holds a T/C of zero for them, seemingly a mark for toxic or unscored doses. Some doses without a T/C left all or most animals alive at the check, yet need not have been tolerated: the source hardly ever lists a survival T/C far under the control, and the zero likely stands for such cases as well. Survivors were counted at the toxicity check, usually on the fifth day, unless a day is given; later deaths do not show. Schedule codes are those of the source, taken here to give the interval after Q, in days (D) or hours (H), and the number of doses after X. Additions like (4×) give the number of equal values in this list. Some doses were run more than once; the values are given in rising order. For survival time, the PubChem record calls one and a half times the control and up active, and a quarter to a half above the control has no call in these data; cut-offs in other NCI protocols can differ. Some T/C values carry the count of animals alive at the toxicity check (mostly the fifth day); where none is given, no animal had died by that day.

System: AKR/Lw mice, AKR lymphoma ip, median survival T/C
Experiment: NCI In Vivo Anticancer Drug Screen. Data for tumor model Lymphoma AKR (Transplanted) (intraperitoneal) in AKR/Lw mice
Details: T/C endpoint: median survival time, higher T/C = longer survival
Method: The antitumor activity of compounds was measured in mice bearing transplantable tumors. Survival or tumor size were measured and the results are expressed as the measurement made in the treated group (T) divided by the measurement made in the vehicle treated control group (C). The tumor model used in this assay is Lymphoma AKR (Transplanted) (intraperitoneal) in AKR/Lw mice

[1] = dose: 0.5 mg/kg/injection, schedule: Q04DX003 (ip), vehicle: saline
[2] = dose: 2.0 mg/kg/injection, schedule: Q04DX003 (ip), vehicle: saline
[3] = dose: 4.0 mg/kg/injection, schedule: Q04DX003 (ip), vehicle: saline
[4] = dose: 8.0 mg/kg/injection, schedule: Q01DX009 (ip), vehicle: saline
[5] = dose: 10.0 mg/kg/injection, schedule: Q07DX003 (ip), vehicle: saline
[6] = dose: 12.5 mg/kg/injection, schedule: Q01DX001 (ip), vehicle: saline
[7] = dose: 16.0 mg/kg/injection, schedule: Q04DX003 (ip), vehicle: saline
[8] = dose: 20.0 mg/kg/injection, schedule: Q07DX003 (ip), vehicle: saline
[9] = dose: 25.0 mg/kg/injection, schedule: Q07DX003 (ip), vehicle: saline
[10] = dose: 32.0 mg/kg/injection, schedule: Q04DX003 (ip), vehicle: saline
[11] = dose: 35.0 mg/kg/injection, schedule: Q01DX001 (ip), vehicle: saline
[12] = dose: 40.0 mg/kg/injection, schedule: Q01DX001 (ip), vehicle: saline
[13] = dose: 50.0 mg/kg/injection, schedule: Q01DX001 (ip), vehicle: saline

## O=NN(CCCl)C(=O)NCCCl
dose: 0.25 mg/kg/injection, schedule: Q04DX003 (ip), vehicle: saline
  survivor count: 10 of 10
dose: 0.5 mg/kg/injection, schedule: Q01DX009 (ip), vehicle: saline
  T/C: 107 [8 of 10 alive], 118 [9 of 10 alive], 121, 127 % of control
[1]
  T/C: 90, 102 [9 of 10 alive], 113 % of control
  survivor count: 10 of 10
dose: 1.0 mg/kg/injection, schedule: Q01DX009 (ip), vehicle: saline, evaluated on day 45
  T/C: 121 % of control
dose: 1.0 mg/kg/injection, schedule: Q01DX009 (ip), vehicle: saline, evaluated on day 60
  T/C: 104, 106, 112, 161 % of control
dose: 1.0 mg/kg/injection, schedule: Q01DX009 (ip), vehicle: saline
  survivor count: 10 of 10
dose: 1.0 mg/kg/injection, schedule: Q04DX003 (ip), vehicle: saline, evaluated on day 45
  T/C: 112 % of control
dose: 1.0 mg/kg/injection, schedule: Q04DX003 (ip), vehicle: saline, evaluated on day 60
  T/C: 93, 94, 120 [9 of 10 alive], 127 % of control
dose: 1.0 mg/kg/injection, schedule: Q04DX003 (ip), vehicle: saline
  survivor count: 10 of 10
dose: 1.2 mg/kg/injection, schedule: Q04DX003 (ip), vehicle: saline
  survivor count: 9 of 10
dose: 1.5 mg/kg/injection, schedule: Q07DX003 (ip), vehicle: saline
  survivor count: 10 of 10
dose: 2.0 mg/kg/injection, schedule: Q01DX009 (ip), vehicle: saline, evaluated on day 45
  T/C: 113 and 128 % of control
dose: 2.0 mg/kg/injection, schedule: Q01DX009 (ip), vehicle: saline, evaluated on day 60
  T/C: 97, 100, 107, 109, 113, 141, 147 % of control
[2]
  T/C: 89, 97, 97 [9 of 10 alive], 105, 117, 138 % of control
  survivor count: 10 of 10 (2×)
dose: 3.0 mg/kg/injection, schedule: Q04DX003 (ip), vehicle: saline
  T/C: 127 % of control
dose: 3.0 mg/kg/injection, schedule: Q07DX003 (ip), vehicle: saline
  survivor count: 5 of 10
dose: 3.12 mg/kg/injection, schedule: Q04DX003 (ip), vehicle: saline
  T/C: 134 % of control
dose: 4.0 mg/kg/injection, schedule: Q01DX009 (ip), vehicle: saline, evaluated on day 45
  T/C: 106, 126, 130 % of control
dose: 4.0 mg/kg/injection, schedule: Q01DX009 (ip), vehicle: saline, evaluated on day 60
  T/C: 95, 97, 97 [9 of 10 alive], 144 [9 of 10 alive], 147 % of control
[3]
  T/C: 97, 105, 108, 109, 113, 121, 137, 138 % of control
  survivor count: 10 of 10 (2×)
dose: 4.0 mg/kg/injection, schedule: Q04DX004 (ip), vehicle: saline
  T/C: 125 % of control
dose: 5.0 mg/kg/injection, schedule: Q01DX009 (ip), vehicle: saline
  survivor count: 9 of 10
dose: 5.0 mg/kg/injection, schedule: Q04DX003 (ip), vehicle: saline
  T/C: 130 % of control
dose: 5.0 mg/kg/injection, schedule: Q07DX003 (ip), vehicle: saline
  T/C: 92 (2×), 110, 113, 121, 126 % of control
dose: 6.0 mg/kg/injection, schedule: Q01DX001 (ip), vehicle: saline
  T/C: 102, 103, 107, 118 % of control
dose: 6.0 mg/kg/injection, schedule: Q01DX009 (ip), vehicle: saline
  survivor count: 10 of 10
dose: 6.0 mg/kg/injection, schedule: Q07DX003 (ip), vehicle: saline
  T/C: 128 % of control
dose: 6.25 mg/kg/injection, schedule: Q04DX003 (ip), vehicle: saline
  survivor count: 10 of 10
[4]
  T/C: 102 and 106 % of control
  survivor count: 9 of 10 and 10 of 10
dose: 8.0 mg/kg/injection, schedule: Q04DX003 (ip), vehicle: saline
  T/C: 94, 100, 111, 114 [9 of 10 alive], 125, 126 [9 of 10 alive], 136, 142 % of control
dose: 8.0 mg/kg/injection, schedule: Q04DX004 (ip), vehicle: saline
  T/C: 126 % of control
dose: 10.0 mg/kg/injection, schedule: Q01DX001 (ip), vehicle: saline, evaluated on day 5
  T/C: 109 % of control
dose: 10.0 mg/kg/injection, schedule: Q01DX001 (ip), vehicle: saline, evaluated on day 60
  T/C: 93, 103, 108, 109, 116, 118 (3×), 118 [7 of 10 alive], 129 % of control
dose: 10.0 mg/kg/injection, schedule: Q01DX009 (ip), vehicle: saline
  survivor count: 10 of 10
[5]
  T/C: 105, 115 (3×), 126 % of control [9 of 10 alive]
  survivor count: 10 of 10
dose: 12.0 mg/kg/injection, schedule: Q01DX001 (ip), vehicle: saline, evaluated on day 45
  T/C: 105 % of control
dose: 12.0 mg/kg/injection, schedule: Q01DX001 (ip), vehicle: saline, evaluated on day 60
  T/C: 100 and 105 % of control (2×)
[6]
  T/C: 126 % of control
  survivor count: 9 of 10
dose: 12.5 mg/kg/injection, schedule: Q04DX003 (ip), vehicle: saline
  survivor count: 10 of 10
dose: 15.0 mg/kg/injection, schedule: Q01DX001 (ip), vehicle: saline, evaluated on day 5
  T/C: 118 % of control
dose: 15.0 mg/kg/injection, schedule: Q01DX001 (ip), vehicle: saline, evaluated on day 7
  T/C: 97 % of control
dose: 15.0 mg/kg/injection, schedule: Q01DX001 (ip), vehicle: saline, evaluated on day 9
  T/C: 98 % of control
dose: 15.0 mg/kg/injection, schedule: Q01DX001 (ip), vehicle: saline, evaluated on day 11
  T/C: 124 % of control
dose: 15.0 mg/kg/injection, schedule: Q01DX001 (ip), vehicle: saline, evaluated on day 60
  T/C: 96 [7 of 10 alive], 100, 116, 118, 120, 133 % of control
dose: 15.0 mg/kg/injection, schedule: Q01DX001 (ip), vehicle: saline
  survivor count: 10 of 10
dose: 15.0 mg/kg/injection, schedule: Q07DX003 (ip), vehicle: saline
  T/C: 100, 102, 105 (2×), 121 [9 of 10 alive], 136 % of control
dose: 16.0 mg/kg/injection, schedule: Q01DX009 (ip), vehicle: saline
  survivor count: 10 of 10
[7]
  T/C: 111 and 128 % of control
  survivor count: 5 of 10 and 10 of 10
dose: 16.0 mg/kg/injection, schedule: Q04DX004 (ip), vehicle: saline
  survivor count: 10 of 10
dose: 20.0 mg/kg/injection, schedule: Q01DX001 (ip), vehicle: saline, evaluated on day 5
  T/C: 131 % of control
dose: 20.0 mg/kg/injection, schedule: Q01DX001 (ip), vehicle: saline, evaluated on day 60
  T/C: 96 [7 of 10 alive], 115 [9 of 10 alive], 116, 120, 125, 128, 131 % of control (3×)
dose: 20.0 mg/kg/injection, schedule: Q01DX001 (ip), vehicle: saline
  survivor count: 6 of 10
dose: 20.0 mg/kg/injection, schedule: Q01DX009 (ip), vehicle: saline
  survivor count: 9 of 10
[8]
  T/C: 105, 107, 136 % of control
  survivor count: 10 of 10
dose: 25.0 mg/kg/injection, schedule: Q01DX001 (ip), vehicle: saline, evaluated on day 5
  T/C: 88 % of control
dose: 25.0 mg/kg/injection, schedule: Q01DX001 (ip), vehicle: saline, evaluated on day 60
  T/C: 88, 103, 115, 115 [7 of 10 alive], 116, 117, 118 [9 of 10 alive], 131, 137 % of control (2×)
dose: 25.0 mg/kg/injection, schedule: Q01DX001 (ip), vehicle: saline
  survivor count: 7 of 10
[9]
  T/C: 92 [9 of 10 alive], 100, 102 % of control
  survivor count: 10 of 10
dose: 30.0 mg/kg/injection, schedule: Q01DX001 (ip), vehicle: saline, evaluated on day 7
  T/C: 144 % of control
dose: 30.0 mg/kg/injection, schedule: Q01DX001 (ip), vehicle: saline, evaluated on day 9
  T/C: 97 % of control
dose: 30.0 mg/kg/injection, schedule: Q01DX001 (ip), vehicle: saline, evaluated on day 11
  T/C: 139 % of control
dose: 30.0 mg/kg/injection, schedule: Q01DX001 (ip), vehicle: saline, evaluated on day 60
  T/C: 120 and 133 % of control (2×)
dose: 30.0 mg/kg/injection, schedule: Q01DX001 (ip), vehicle: saline
  survivor count: 1 of 10, 7 of 10, 9 of 10
dose: 30.0 mg/kg/injection, schedule: Q14DX003 (ip), vehicle: saline, evaluated on day 5
  T/C: 144 % of control
dose: 30.0 mg/kg/injection, schedule: Q14DX003 (ip), vehicle: saline, evaluated on day 60
  T/C: 144 % of control [9 of 10 alive]
dose: 32.0 mg/kg/injection, schedule: Q01DX009 (ip), vehicle: saline
  survivor count: 10 of 10
[10]
  T/C: 87 % of control [9 of 10 alive]
  survivor count: 2 of 10, 6 of 10, 10 of 10
[11]
  T/C: 133 % of control (2×)
  survivor count: 6 of 10, 9 of 10, 10 of 10
[12]
  T/C: 116, 129, 145 % of control
  survivor count: 6 of 10, 8 of 10, 9 of 10
dose: 40.0 mg/kg/injection, schedule: Q01DX009 (ip), vehicle: saline
  survivor count: 7 of 10
dose: 48.0 mg/kg/injection, schedule: Q01DX001 (ip), vehicle: saline
  survivor count: 10 of 10
[13]
  T/C: 88 [9 of 10 alive], 104 [8 of 10 alive], 121 % of control
  survivor count: 7 of 10 and 10 of 10
dose: 50.0 mg/kg/injection, schedule: Q04DX003 (ip), vehicle: water
  survivor count: 9 of 10
dose: 64.0 mg/kg/injection, schedule: Q04DX003 (ip), vehicle: saline
  survivor count: 6 of 10
dose: 75.0 mg/kg/injection, schedule: Q01DX001 (ip), vehicle: saline
  survivor count: 7 of 10
dose: 80.0 mg/kg/injection, schedule: Q01DX009 (ip), vehicle: saline
  survivor count: 1 of 10
dose: 100.0 mg/kg/injection, schedule: Q01DX001 (ip), vehicle: saline
  survivor count: 0 of 10, 5 of 10, 6 of 10
dose: 200.0 mg/kg/injection, schedule: Q01DX001 (ip), vehicle: saline
  survivor count: 4 of 10
